Measured values: publication PMC10161774
No constants are given. Whether binding was seen depends on the method and setting. Some entries that bind do so weakly or less than the wild type.

Biological target: T1, Recombinant tissue transglutaminase (tG) (human), P21980
T1 chain: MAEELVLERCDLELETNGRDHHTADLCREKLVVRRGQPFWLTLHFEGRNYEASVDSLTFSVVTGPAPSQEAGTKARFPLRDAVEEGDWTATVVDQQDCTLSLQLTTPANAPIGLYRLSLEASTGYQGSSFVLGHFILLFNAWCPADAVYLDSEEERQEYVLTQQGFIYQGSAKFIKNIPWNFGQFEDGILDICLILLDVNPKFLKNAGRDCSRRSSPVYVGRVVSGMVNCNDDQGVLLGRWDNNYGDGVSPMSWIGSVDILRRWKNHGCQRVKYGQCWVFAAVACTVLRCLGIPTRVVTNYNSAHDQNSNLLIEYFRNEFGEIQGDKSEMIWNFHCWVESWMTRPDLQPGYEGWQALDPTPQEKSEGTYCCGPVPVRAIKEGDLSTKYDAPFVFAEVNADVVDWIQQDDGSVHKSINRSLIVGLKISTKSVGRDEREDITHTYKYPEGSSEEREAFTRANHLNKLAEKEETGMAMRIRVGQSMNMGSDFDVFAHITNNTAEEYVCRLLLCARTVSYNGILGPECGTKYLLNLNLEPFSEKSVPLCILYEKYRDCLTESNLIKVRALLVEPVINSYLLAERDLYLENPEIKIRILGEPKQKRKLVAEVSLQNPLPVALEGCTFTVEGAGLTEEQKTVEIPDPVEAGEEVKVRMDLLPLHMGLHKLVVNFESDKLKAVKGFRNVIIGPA
Experiment: static (equilibrium) SAXS; tG incubated with Ca2+ for 5 min (fast-load) or 30 min (slow-load); home source (BioXolver); both purified
Conditions: remark: other sources report otherwise

B1: Recombinant tissue transglutaminase (tG), P21980 1-687 (enzyme)
chain: MAEELVLERCDLELETNGRDHHTADLCREKLVVRRGQPFWLTLHFEGRNYEASVDSLTFSVVTGPAPSQEAGTKARFPLRDAVEEGDWTATVVDQQDCTLSLQLTTPANAPIGLYRLSLEASTGYQGSSFVLGHFILLFNAWCPADAVYLDSEEERQEYVLTQQGFIYQGSAKFIKNIPWNFGQFEDGILDICLILLDVNPKFLKNAGRDCSRRSSPVYVGRVVSGMVNCNDDQGVLLGRWDNNYGDGVSPMSWIGSVDILRRWKNHGCQRVKYGQCWVFAAVACTVLRCLGIPTRVVTNYNSAHDQNSNLLIEYFRNEFGEIQGDKSEMIWNFHCWVESWMTRPDLQPGYEGWQALDPTPQEKSEGTYCCGPVPVRAIKEGDLSTKYDAPFVFAEVNADVVDWIQQDDGSVHKSINRSLIVGLKISTKSVGRDEREDITHTYKYPEGSSEEREAFTRANHLNKLAEKEETGMAMRIRVGQSMNMGSDFDVFAHITNNTAEEYVCRLLLCARTVSYNGILGPECGTKYLLNLNLEPFSEKSVPLCILYEKYRDCLTESNLIKVRALLVEPVINSYLLAERDLYLENPEIKIRILGEPKQKRKLVAEVSLQNPLPVALEGCTFTVEGAGLTEEQKTVEIPDPVEAGEEVKVRMDLLPLHMGLHKLVVNFESDKLKAVKGFRNVIIGPA
  binding: binds
